Assay results published in PubChem BioAssay AID1645882 (National Center for Advancing Translational Sciences (NCATS), 2021).
“And” between values parts separate entries of the source, which are not always exact repeats. Equal entries are not always repeated. What follows is the remainder of the data, with few or none of the hits. Records with an inconclusive call do not appear. The source made the active and inactive calls. Calls come from the whole dose curve; as a rule, active = well fitted inhibition curve with a large enough effect; inconclusive = small, poorly fitted or top-dose-only effect; inactive = no such curve, though single readings can be large or run the other way.

Protein sequences, listed by entry. Tags and fused reporters are not part of them. Lines headed by an entry give the natural chain unless they say otherwise; changes in a name come on top.
UniProt O95398: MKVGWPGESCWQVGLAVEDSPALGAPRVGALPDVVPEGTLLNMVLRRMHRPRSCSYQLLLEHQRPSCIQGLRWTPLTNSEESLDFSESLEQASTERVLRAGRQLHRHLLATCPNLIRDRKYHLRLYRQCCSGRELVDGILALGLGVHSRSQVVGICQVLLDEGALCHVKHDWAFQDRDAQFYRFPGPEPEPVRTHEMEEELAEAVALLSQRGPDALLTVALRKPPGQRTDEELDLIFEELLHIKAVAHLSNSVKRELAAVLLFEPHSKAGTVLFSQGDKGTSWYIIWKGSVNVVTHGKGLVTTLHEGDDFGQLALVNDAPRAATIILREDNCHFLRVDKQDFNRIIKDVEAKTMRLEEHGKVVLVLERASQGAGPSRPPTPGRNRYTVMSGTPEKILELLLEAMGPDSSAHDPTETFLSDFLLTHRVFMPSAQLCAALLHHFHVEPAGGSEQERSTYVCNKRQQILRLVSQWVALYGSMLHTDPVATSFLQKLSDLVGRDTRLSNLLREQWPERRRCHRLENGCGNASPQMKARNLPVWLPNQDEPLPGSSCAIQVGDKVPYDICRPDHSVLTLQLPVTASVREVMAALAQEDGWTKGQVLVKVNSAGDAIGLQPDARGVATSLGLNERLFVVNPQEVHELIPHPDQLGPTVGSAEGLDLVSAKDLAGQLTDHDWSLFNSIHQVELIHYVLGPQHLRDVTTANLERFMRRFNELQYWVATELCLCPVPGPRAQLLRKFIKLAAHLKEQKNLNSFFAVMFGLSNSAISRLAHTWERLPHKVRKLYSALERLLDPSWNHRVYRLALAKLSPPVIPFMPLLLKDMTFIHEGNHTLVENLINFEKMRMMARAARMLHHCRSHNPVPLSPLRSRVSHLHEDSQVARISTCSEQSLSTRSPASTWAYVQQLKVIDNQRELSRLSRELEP

Biological target: Rap guanine nucleotide exchange factor 3 (Homo sapiens) (UniProt O95398)
Assay: Validation qHTS for antagonist of cAMP-regulated guanine nucleotide exchange factor 3 (EPAC1);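 note: plate controls were DMSO for no effect and ATA control for full effect; nearly all actives have a fitted effect of over 75% in size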
Settings: EPAC1 Rap1B-BODIPY-GDP exchange, fluorescence
Text: Assay Provider (PI): Xiaodong Cheng Ph.D.
The University of Texas Medical Branch, […], TX
In multi-cellular eukaryotic organisms, the effects of cAMP are transduced by two ubiquitously-expressed intracellular cAMP receptors, the classic protein kinase A/cAMP-dependent protein kinase (PKA/cAPK) and the more recently discovered exchange protein directly activated by cAMP/cAMP-regulated guanine nucleotide exchange factor (EPAC/cAMP-GEF). Both PKA and EPAC are ubiquitously expressed in all tissues, and an increase in intracellular cAMP levels will lead to the activation of both PKA and EPAC. Therefore, careful dissections of the individual role and relative contribution of EPAC and PKA within the overall cAMP signaling in various model systems are critical for further elucidating the mechanism of cAMP signaling. To date no EPAC-specific antagonists and agonist, as well as isoform-specific agonists have been reported, and developing EPAC-specific pharmacological probes to determine the physiological functions that EPAC play in the overall cAMP-mediated signaling remains a major challenge within the research field. Furthermore, identified regulators of EPAC may lead to new mechanism-based therapeutic strategies specifically targeting the EPAC / cAMP-signaling components as EPAC has been implicated to play important roles in major human pathological conditions such as diabetes, heart disease, and cancer.
This qHTS will be used to screen the Molecular Libraries Small Molecule Repository (MLSMR) as a concentration-titration series using the NCGC unique quantitative screening (qHTS) platform to find activators for EPAC1. In addition, this assay will also be used as a counterscreen for the EPAC2 qHTS. This fluorescent based assay is developed and validated for EPAC1 that measures exchange using EPAC effector Rap1 complex with BODIPY-GDP, a GDP analog with a tethered fluorophores. Activators are identified by monitoring the change in fluorescence signal as the exchanged free BODIPY-GDP has a reduced fluorescence compared to Rap1-bound BODIPY-GDP. Increase in signal (activation) is the desired outcome for the EPAC1 agonist while no activity in this assay is desired for the EPAC2 agonist counterscreen.
[1] de Rooij, J., Zwartkruis, F. J., Verheijen, M. H., Cool, R. H., Nijman, S. M., Wittinghofer, A., and Bos, J.L. (1998) Nature 396, 474-477.
Briefly, three uL of reagents (100 nM EPAC1, 250 nM RAP1B-BODIPY-GDP, 50 uM GDP) were dispensed into a 1536-well Greiner black solid-bottom medium binding assay plate. Controls and test compounds (23 nL) were transferred to the plate via a Kalypsys pin tool equipped with a 1536-pin array. […] The assay plates were read at 5 minute intervals for 30 minutes in the ViewLux plate reader using 480nm excitation and 540nm emission filters. […]

With `Nc1ccc(N)c([N+](=O)[O-])c1` the activity change, negative = inhibition (at 320 µM (top of the series)) was inactive: -7.03%.

In the case of `Cc1c(C(=O)NN2CCCCC2)nn(-c2ccc(Cl)cc2Cl)c1-c1ccc(I)cc1`, the activity change, negative = inhibition (at 150 µM (top of the series)) is reported as inactive: -7.76%.

In the case of `Cc1cccc(CCN2CCC(C(=O)c3ccc(NS(C)(=O)=O)cc3)CC2)n1`, the activity change, negative = inhibition (at 150 µM (top of the series)) is reported as inactive: 18.3% and inactive: -1.26% and the activity change, negative = inhibition (at 201 µM (top of the series)) is reported as inactive: 31.8%.
